Data taken from PubChem BioAssay AID2685 (National Center for Advancing Translational Sciences (NCATS), 2010).
The list shows a part of the results. The main result of the screen is listed elsewhere. These columns were measured beside it and carry no call. Compounds called inactive in the main read-out are mostly missing here. The note in brackets gives the kind of curve behind each potency; many fits are weak.

Assay: qHTS Assay for Lipid Storage Modulators in Drosophila S3 Cells;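 on cell number change: cells counted by Cell Tracker Red CMTPX staining in the red channel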
Conditions: BODIPY lipid droplet fluorescence, 18-24 h; for cell number change: measured here: cell count max response, cells fed with added oleic acid
Outline: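 Laser-scanning cytometry quantifies lipid droplet accumulation (500–530 nm total intensity; droplet/cell object ratio) in oleic acid-fed (400 uM added) Drosophila S3 cells treated with a concentration series. 20 uM Triacsin C defined 100% inhibition.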

[1] = measured here: lipid fluorescence (Fed channel) AC50, cells fed with added oleic acid
[2] = measured here: cell number channel AC50, cells fed with added oleic acid

Row | SMILES | cell number change | AC50 [1] | AC50 [2]
1 | CCN(CC)S(=O)(=O)c1ccc2c(c1)nc(SCC(=O)NCC1CCCO1)n2CC (configuration not stated) | 12.8% | 32.6 µM [rising, single point] | –
2 | CC(C)(C)C(=O)NC(n1cnc2c(N3CCOCC3)ncnc21)C(Cl)(Cl)Cl (configuration not stated) | -26.4% | 18.4 µM [falling, single point] | –
3 | O=[N+]([O-])c1ccc(N/N=C/c2cccnc2)cc1 | -2.46% | 16.4 µM [falling, single point] | –
4 | Cc1cc(=O)n2c(ccc3ccccc32)c1C#N | 3.69% | – | –
5 | CCOC(=O)Cc1csc(NC(=O)c2ccc3ccccc3n2)n1 | 30.8% | – | 11.6 µM [rising, partial curve, poor fit]
6 | CCOc1ccc(-c2nnc(SCC(=O)N(CC)CC)n2N)cc1 | 13.2% | 1.3 µM [rising, partial curve, poor fit] | –
7 | O=C(c1ccccc1)N1CCN(C(=O)c2ccc3c(c2)OCCO3)CC1 | -30.1% | – | –
8 | COc1ccccc1NC(=O)Cn1c(=O)sc2ccccc21 | -1.92% | 5.17 µM [falling, single point] | –
9 | COc1ccc(CNC(=O)C(=O)NCC2OCCN2S(=O)(=O)c2ccc3c(c2)OCCO3)cc1 (configuration not stated) | 30% | 2.31 µM [rising, full curve, poor fit] | –
10 | CCOc1cc(Br)c(C(=O)O)cc1OCC | -17.1% | 32.6 µM [falling, partial curve, poor fit] | –
11 | Cc1ccc(NC(=O)/C(=C/c2cccc([N+](=O)[O-])c2)NC(=O)C2CCCCC2)cc1 | – | 1.64 µM [rising, partial curve] | –
12 | CCCOC(=O)NC(CC)COC(=O)Nc1cc(C)ccc1C (configuration not stated) | -17.8% | 0.366 µM [rising, full curve, poor fit] | –
13 | CC(C)C(NC(=O)c1ccccc1F)C(=O)NCCc1ccccn1 (configuration not stated) | 24.3% | 7.31 µM [rising, partial curve] | 3.66 µM [rising, full curve, poor fit]
14 | O=C(NCCCN1CCOCC1)c1ccc2c(c1)N(Cc1ccc(F)cc1)CCS2 | 31.2% | 2.31 µM [rising, partial curve] | 32.6 µM [rising, single point]
15 | COc1ccc(C(=O)Nc2c(C)csc2C(=O)O)cc1 | 39.4% | 16.4 µM [rising, partial curve] | 14.6 µM [rising, partial curve, poor fit]
16 | CC(C)(C)NC(=O)C(c1ccc(O)cc1)N(C(=O)CCC(=O)Nc1ccccn1)c1ccc(F)cc1 (configuration not stated) | 6.09% | – | 1.64 µM [rising, partial curve, poor fit]
17 | CCCOc1ccccc1-c1nc2c([nH]1)c(=O)[nH]c(=O)n2C | 4.53% | 1.16 µM [rising, partial curve] | –
18 | CNC(=O)N(O)C1N(/N=C/c2cccs2)C(=S)SC1(C)C (configuration not stated) | 7.44% | 0.103 µM [falling, full curve, poor fit] | 0.146 µM [falling, full curve, poor fit]
19 | CCC(C)[C@H](NC(=O)C1CCC(CNC(=O)[C@@H]2CCCN2C(=O)OC(C)(C)C)CC1)C(=O)O (some centres not stated) | 7.8% | – | 6.51 µM [rising, single point]
20 | Cc1ccc(-n2c(SCC(N)=O)nnc2-c2ccccn2)cc1C | 23% | 0.651 µM [falling, partial curve] | 0.58 µM [falling, single point]

2 compounds from above with just cell number change:
Row	SMILES	cell number change
6	CCOc1ccc(-c2nnc(SCC(=O)N(CC)CC)n2N)cc1	13.2%
14	O=C(NCCCN1CCOCC1)c1ccc2c(c1)N(Cc1ccc(F)cc1)CCS2	31.2%

Going on with the list.

Row | SMILES | cell number change | AC50 [1] | AC50 [2]
21 | O=C(O)C[C@@H](O)C(=O)O | -1.14% | 0.92 µM [falling, full curve, poor fit] | –
22 | CC(C)c1ccc(NC(=O)[C@@H](C)NC(=O)[C@@H]2Cc3ccccc3CN2)cc1 | -15.8% | – | –
23 | Cc1cc(N2CCCCC2)nc(-c2ccc(Br)cc2)n1 | 44.9% | 16.4 µM [rising, single point] | 20.6 µM [rising, single point]
24 | Cc1ccccc1NS(=O)(=O)c1nnc(NC(=O)c2ccccc2F)s1 | 2.59% | 6.51 µM [rising, single point] | –
25 | Cc1ccccc1NC1=C(Cl)C(=O)N(C2CCCCC2)C1=O | -15.7% | – | –
26 | Cc1onc(-c2ccccc2)c1C(=O)NCCN1CCOCC1 | -4.27% | 0.13 µM [falling, full curve, poor fit] | –
27 | O=C(CSc1nnc(-c2ccccc2F)o1)N1CCNC1=O | 28.7% | 0.146 µM [rising, full curve, poor fit] | –
28 | CC1CCN(C(=O)c2[nH]cnc2C(=O)Nc2cccc(Cl)c2)CC1 | -25.8% | 0.00461 µM [falling, full curve, poor fit] | –
29 | CN1CCc2c(sc(NC(=O)Cc3ccccc3)c2C#N)C1 | 18.2% | – | –
30 | O=C(NCCCN1CCCC1=O)C(=O)NCC1OCCN1S(=O)(=O)c1ccc(Cl)cc1 (configuration not stated) | 21.7% | 20.6 µM [rising, single point] | –
31 | CSc1n[nH]c(NCc2cccs2)n1 | -32.9% | 0.651 µM [falling, full curve] | 1.03 µM [falling, full curve]
32 | O=C(CCS(=O)(=O)c1ccc(Br)s1)NC1CCCCCC1 | 43.2% | – | 8.2 µM [rising, partial curve]
33 | Cc1ccccc1OCC(=O)Nc1cccc(S(=O)(=O)NC2=NCCC2)c1 | -10.8% | 0.164 µM [rising, full curve, poor fit] | –
34 | COC(=O)[C@@H](NC(=O)NCc1ccc(F)cc1)C(C)C | 0.982% | 6.51 µM [rising, full curve, poor fit] | –
35 | Cc1ncc(CO)c(/C=N/NC(=O)c2ccoc2C)c1O | -2.01% | – | –
36 | CC1(C)C(=O)OC(c2ccc([N+](=O)[O-])cc2)C(C)(C)C1=O (configuration not stated) | 38.9% | – | 20.6 µM [rising, single point]
37 | Cc1cnc(NC(=O)CSc2nnc(C)n2N)s1 | -24.4% | 3.26 µM [falling, full curve, poor fit] | 0.82 µM [falling, full curve, poor fit]
38 | O=C(Nc1ccccc1)C1CC(=O)n2c(nc3ccccc32)N1 (configuration not stated) | – | 0.92 µM [falling, full curve, poor fit] | –
39 | CC(C)NC(=O)Cn1cnc2c1c(=O)n(C)c(=O)n2C | 2.89% | – | –
40 | CC(C)OP(=O)(OC(C)C)C(Nc1ccccn1)c1ccc(F)cc1 (configuration not stated) | -8.19% | 0.146 µM [falling, full curve, poor fit] | –

Row | SMILES | cell number change | AC50 [1] | AC50 [2]
41 | COC(=O)c1cccc(Cn2cc([N+](=O)[O-])cn2)c1 | 7.16% | 0.116 µM [rising, full curve, poor fit] | 1.84 µM [rising, partial curve, poor fit]
42 | OC(Cc1nc2ccccc2[nH]1)c1ccccc1Cl (configuration not stated) | – | 1.64 µM [rising, single point] | 0.731 µM [rising, single point]
43 | Cc1ncc([N+](=O)[O-])n1Cc1ccccc1 | -18% | 0.0058 µM [falling, full curve, poor fit] | –
44 | O=C1CCCS(=O)(=O)c2ccccc21 | 3.58% | 0.103 µM [falling, full curve, poor fit] | –
45 | COc1ccc(CCNC(=O)COC(=O)c2ccc(C)s2)cc1OC | -55.6% | 1.84 µM [falling, full curve] | 8.2 µM [falling, partial curve, poor fit]
46 | COc1ccc(S(=O)(=O)NCCC(=O)NCc2cccs2)cc1 | 30.1% | 6.51 µM [rising, single point] | 32.6 µM [rising, single point]
47 | CC1CCN(C2CCN(S(=O)(=O)c3ccc(C(F)(F)F)cc3)CC2)CC1 | – | – | 0.13 µM [rising, partial curve, poor fit]
48 | COc1ccccc1CCNC(=O)c1ccc(NC(=O)CC2SC(N3CCCC3)=NC2=O)cc1 (configuration not stated) | 18.8% | 4.11 µM [rising, single point] | –
49 | CC(C)(C)OC(=O)NCCc1nnc(SCC(=O)Nc2cccc(Cl)c2)o1 | -14.3% | – | –
50 | COC(=O)Cc1[nH]n(-c2ccccc2)c(=O)c1C=Nc1ccc(C)cc1 | 12.1% | 0.0146 µM [rising, full curve, poor fit] | 0.00411 µM [rising, full curve, poor fit]
51 | O=C1/C(=C/c2cccc(Cl)c2)SC(=S)N1CCC(=O)N1CCCCC1CCO (configuration not stated) | 2.36% | 29.1 µM [falling, single point] | –
52 | COc1ccccc1CC(=O)NN1C(=O)NC2(CCC(C)CC2)C1=O (configuration not stated) | -25.7% | – | –
53 | Cc1ccc2nc(SCC(=O)N(CC(C)C)c3c(N)n(CC(C)C)c(=O)[nH]c3=O)[nH]c2c1 | 51.2% | – | 9.2 µM [rising, partial curve, poor fit]
54 | O=C(O)c1cc2cc(Oc3ccccc3)ccc2[nH]1 | 29.8% | 29.1 µM [rising, single point] | –
55 | COC(=O)c1ccc(C(c2c(N)n(Cc3ccccc3)c(=O)n(C)c2=O)N2CCOCC2)cc1 (configuration not stated) | -0.452% | 6.51 µM [rising, single point] | –
56 | COc1ccc(C(=O)N2CCN(c3ccccc3)CC2)cc1S(=O)(=O)NC1CC1 | -1.81% | 3.66 µM [rising, partial curve] | –
57 | CC(=O)Nc1ccc(O)cc1[N+](=O)[O-] | -0.265% | 6.51 µM [falling, partial curve] | 6.51 µM [falling, single point]
58 | Cn1nc(C(=O)N2CCN(S(=O)(=O)/C=C/c3ccccc3)CC2)c2ccccc2c1=O | 0.711% | 13 µM [rising, single point] | –
